Measured values as given in patent publication US20080069857A1, “Compositions And Methods For Inhibiting Adhesions” (priority 2006, published 2008).
At least one structure is not confirmed: it was looked up by name or label, or the drawing left a doubt.

System: TNF-α production by primary mouse macrophages
Assay: TNF-α production by LPS-challenged macrophages
Format: cell-based, mouse (C57/B16)
Conditions: macrophages stimulated with LPS 100 ng/ml; drug or hydrogel release media
Method: C57/B16 mice were purchased from Taconic (Hudson, N.Y.). 2 ml of 3% (w/v) sterile thioglycollate solution (DIFCO Laboratories, Detroit, Mich.) was injected into the peritoneal cavity. Four days after injection, the mice were euthanized by CO2, and 6 ml of ice-cold PBS buffer containing 5 mM EDTA was injected. After agitating the peritoneum with forceps, a macrophage-containing solution was aspirated. The cells were placed immediately into iced DMEM on ice prior to washing, counting and plating. Approximately 10^7 cells per mouse were obtained.
Non-adherent cells were removed by washing with 200 μl/well PBS buffer. Then 100 μl of DMEM with 10% FBS and 100 μl of medium pre-incunated with hydrogels (Sec. 2.2.9), or known concentrations of dexamethasone, were added to the adherent macrophages in each well. After incubation for 24 h at 37° C. in 5% CO2, 25 μl of 900 ng/ml of LPS (Sigma, St. Louis, Mo.; Catalog #L-4391) was added to each well to a final concentration of 100 ng/ml. After incubation for a further 16 h, the media were collected and stored at −80° C. until analyzed. The concentration of TNF-α, IL-6, and dexamethasone in those media were measured by ELISA (enzyme-linked immunosorbent assay). The ELISA kits for TNF-α, IL-6, and dexamethasone were purchased from R&D Systems (DuoSet, Cat DY406), BioLegend (Mouse IL-6 ELISA MAX™ Set (Deluxe)), and Neogen Corporation, respectively.

Compound: C[C@@H]1C[C@H]2[C@@H]3CCC4=CC(=O)C=C[C@]4(C)[C@@]3(F)[C@@H](O)C[C@]2(C)[C@@]1(O)C(=O)CO [Dexamethasone]
- effect on production of TNF-α: dose-dependent reduction
